Data: patent publication US20240409517A1, “ORGANIC COMPOUNDS” (GIVAUDAN SA, priority 2021, published 2024)
Some results were stated once for a whole list of compounds, not compound by compound. At least one compound was matched to its structure with a doubt left.

Legend:
Format in all cases: in vivo
sensory panel [1] = test: Taste in water by a sensory panel; details: 50 ppm
sensory panel [2] = test: Salt enhancement in 0.5% NaCl aqueous solution, sensory panel; details: 0.5% NaCl aq. solution with 50 ppm compound, compared with 0.5% NaCl alone
From the text: The solutions were tasted by a sensory panel. Solution A was describes as “salty”.
Aqueous solutions comprising 0.5% NaCl and 50 ppm of the compounds of example 2-21, respectively, have been prepared and tasted by a sensory panel in comparison with an aqueous solution comprising 0.5% NaCl.
Aqueous solutions comprising 0.5% NaCl and 50 ppm of the compounds of example 38-58, respectively, have been prepared and tasted by a sensory panel in comparison with an aqueous solution comprising 0.5% NaCl.

sensory panel [3] = test: Umami enhancement in savoury model solution (NaCl, MSG, Ribotides), sensory panel; details: 0.5% NaCl, 0.03% MSG, 0.007% Ribotides with 50 ppm compound, compared with solution A without compound
From the text: The solutions were tasted by a sensory panel. Solution A is a model solution for savoury taste, containing MSG (monosodium glutamate) and Ribotides (IMP/GMP, 50/50 mixture) as savoury taste enhancer.
Two aqueous solutions have been prepared: • A) 0.5% NaCl, 0.03% MSG, 0.007% Ribotides, and • B) 0.5% NaCl, 0.03% MSG, 0.007% Ribotides and 50 ppm of the compound of example 38-58, respectively.

| Compound | taste in water (sensory panel [1]) | salty taste versus 0.5% NaCl solution (sensory panel [2]) | saltiness and umami versus savoury model solution (sensory panel [3]) |
| --- | --- | --- | --- |
| O=C(NCCc1c[nH]cn1)c1ccc2[nH]ccc2c1 [Example 2, N-[2-(1H-imidazol-4-yl)ethyl]-1H-indole-5-carboxamide] | no taste | more salty |  |
| O=C(/C=C/c1cnc[nH]1)N[C@@H](Cc1c[nH]c2ccccc12)C(=O)O [Example 4, N-[(2E)-3-(1H-imidazol-5-yl)prop-2-enoyl]-L-tryptophan] | no taste | more salty |  |
| CSCCCNC(=O)[C@@H](N)Cc1c[nH]cn1 [Example 6, N-[3-(methylsulfanyl)propyl]histidinamide] | no taste | more salty |  |
| N[C@@H](Cc1c[nH]cn1)C(=O)NCCO [Example 7, N-(2-hydroxyethyl)histidinamide] | no taste | more salty |  |
| N[C@@H](Cc1c[nH]cn1)C(=O)NCCC(=O)O [Example 8, Histidyl-B-alanine] | no taste | more salty |  |
| CCCCC/C=C\C/C=C\CCCCCCCC(=O)N[C@@H](Cc1c[nH]cn1)C(=O)O [Example 9, N-[(9Z,12Z)-octadeca-9,12-dienoyl]-L-histidine] | no taste | more salty |  |
| O=C(/C=C/c1nccs1)NCCc1c[nH]cn1 [Example 10, (2E)-N-[2-(1H-imidazol-4-yl)ethyl]-3-(1,3-thiazol-2-yl)prop-2-enamide] | no taste | more salty |  |
| CC/C=C\C/C=C\C/C=C\CCCCCCCC(=O)N[C@@H](Cc1c[nH]cn1)C(=O)O [Example 11, N-[(9Z,12Z,15Z)-octadeca-9,12,15-trienoyl]-L-histidine] | no taste | more salty |  |
| CCCCCCCC/C=C\CCCCCCCC(=O)N[C@@H](Cc1c[nH]cn1)C(=O)O [Example 12, N-[(9Z)-octadec-9-enoyl]-L-histidine] | no taste | more salty |  |
| CCCCCCCCCCCCCCCCCC(=O)N[C@@H](Cc1c[nH]cn1)C(=O)O [Example 13, N-octadecanoylhistidine] | no taste | more salty |  |
| NC(=O)/C=C/c1c[nH]cn1 [Example 14, (2E)-3-(1H-imidazol-4-yl)prop-2-enamide] | no taste | more salty |  |
| O=C(/C=C/c1c[nH]cn1)NCCc1ccncc1 [Example 15, (2E)-3-(1H-imidazol-4-yl)-N-[2-(pyridin-4-yl)ethyl]prop-2-enamide] | no taste | more salty |  |
| COC(=O)C1Cc2ccccc2N1 (stereo not drawn) [Example 16, methyl 2,3-dihydro-1H-indole-2-carboxylate] | no taste | more salty |  |
| O=C(/C=C/c1c[nH]cn1)NCCc1ccccn1 [Example 17, (2E)-3-(1H-imidazol-4-yl)-N-[2-(pyridin-2-yl)ethyl]prop-2-enamide] | no taste | more salty |  |
| CC(C)=CCC/C(C)=C/CNC(=O)/C=C/c1c[nH]cn1 [Example 18, (2E)-N-[(2E)-3,7-dimethylocta-2,6-dien-1-yl]-3-(1H-imidazol-4-yl)prop-2-enamide] | no taste | more salty |  |
| O=C(NCCc1c[nH]cn1)C1Cc2ccccc2N1 (stereo not drawn) [Example 19, N-[2-(1H-imidazol-4-yl)ethyl]-2,3-dihydro-1H-indole-2-carboxamide] | no taste | more salty |  |
| O=C(/C=C/c1ncccn1)NCCc1ncccn1 [Example 20, (2E)-3-(pyrimidin-2-yl)-N-[2-(pyrimidin-2-yl)ethyl]prop-2-enamide] | no taste | more salty |  |
| O=C(/C=C/C1=NCC=N1)NCCc1cnc[nH]1 [Example 38, (2E)-3-(4H-imidazol-2-yl)-N-[2-(1H-imidazol-5-yl)ethyl]prop-2-enamide] |  | more salty | strong boost of saltiness and umami |

| Compound | taste in water (sensory panel [1]) | salty taste versus 0.5% NaCl solution (sensory panel [2]) | saltiness and umami versus savoury model solution (sensory panel [3]) |
| --- | --- | --- | --- |
| O=C(/C=C/c1c[nH]cn1)NCCc1ncc[nH]1 [Example 39, (2E)-3-(1H-imidazol-4-yl)-N-[2-(1H-imidazol-2-yl)ethyl]prop-2-enamide] |  | more salty | strong boost of saltiness and umami |
| O=C(CCc1c[nH]cn1)NCCO [Example 40, N-(2-hydroxyethyl)-3-(1H-imidazol-4-yl)propanamide] |  | more salty | strong boost of saltiness and umami |
| O=C(/C=C/c1c[nH]cn1)NCCc1ccc[nH]1 [Example 41, (2E)-3-(1H-imidazol-4-yl)-N-[2-(1H-pyrrol-2-yl)ethyl]prop-2-enamide] |  | more salty | strong boost of saltiness and umami |
| NC(Cc1c[nH]cn1)C(=O)NCCC(=O)O (stereo not drawn) [Example 42, 3-[2-amino-3-(1H-imidazol-4-yl)propanamido]propanoic acid] |  | more salty | strong boost of saltiness and umami |
| O=C(/C=C\c1c[nH]cn1)NCCc1c[nH]cn1 [Example 43, (2Z)-3-(1H-imidazol-4-yl)-N-[2-(1H-imidazol-4-yl)ethyl]prop-2-enamide] |  | more salty | strong boost of saltiness and umami |
| O=C(/C=C/c1ccccc1)NCCc1c[nH]cn1 [Example 44, (2E)-N-[2-(1H-imidazol-4-yl)ethyl]-3-phenylprop-2-enamide] |  | more salty | strong boost of saltiness and umami |
| O=C(/C=C/c1c[nH]cn1)NCc1cncnc1 [Example 46, (2E)-3-(1H-imidazol-4-yl)-N-[(pyrimidin-5-yl)methyl]prop-2-enamide] |  | more salty | strong boost of saltiness and umami |
| O=C(/C=C/c1c[nH]cn1)NCc1cnccn1 [Example 47, (2E)-3-(1H-imidazol-4-yl)-N-[(pyrazin-2-yl)methyl]prop-2-enamide] |  | more salty | strong boost of saltiness and umami |
| O=C(/C=C/c1ccco1)NCCc1c[nH]cn1 [Example 48, (2E)-3-(furan-2-yl)-N-[2-(1H-imidazol-4-yl)ethyl]prop-2-enamide] |  | more salty | strong boost of saltiness and umami |
| O=C(/C=C/c1cccs1)NCCc1c[nH]cn1 [Example 49, (2E)-N-[2-(1H-imidazol-4-yl)ethyl]-3-(thiophen-2-yl)prop-2-enamide] |  | more salty | strong boost of saltiness and umami |
| O=C(/C=C/c1ccsc1)NCCc1c[nH]cn1 [Example 50, (2E)-N-[2-(1H-imidazol-4-yl)ethyl]-3-(thiophen-3-yl)prop-2-enamide] |  | more salty | strong boost of saltiness and umami |
| O=C(/C=C/c1ccccc1)NC(Cc1c[nH]cn1)C(=O)O (stereo not drawn) [Example 51, 3-(1H-imidazol-4-yl)-2-{[(2E)-3-phenylprop-2-enoyl]amino}propanoic acid] |  | more salty | strong boost of saltiness and umami |
| C/C=C(\C)C(=O)NC(Cc1c[nH]cn1)C(=O)O (stereo not drawn) [Example 52, 3-(1H-imidazol-4-yl)-2-{[(2E)-2-methylbut-2-enoyl]amino}propanoic acid] |  | more salty | strong boost of saltiness and umami |
| CCC(C)C(=O)NCCc1c[nH]cn1 (stereo not drawn) [Example 53, N-[2-(1H-imidazol-4-yl)ethyl]-2-methylbutanamide] |  | more salty | strong boost of saltiness and umami |
| CC(C)=CCC/C(C)=C/C(=O)NCCc1c[nH]cn1 [Example 54, (2E)-N-[2-(1H-imidazol-4-yl)ethyl]-3.7-dimethylocta-2,6-dienamide] |  | more salty | strong boost of saltiness and umami |
| O=C(/C=C/c1ccco1)NC(Cc1c[nH]cn1)C(=O)O (stereo not drawn) [Example 55, 2-{[(2E)-3-(furan-2-yl)prop-2-enoyl]amino}-3-(1H-imidazol-4-yl)propanoic Acid] |  | more salty | strong boost of saltiness and umami |
| O=C(/C=C/c1c[nH]cn1)NC(Cc1cnc[nH]1)C(=O)O (stereo not drawn) [Example 56, 3-(1H-imidazol-5-yl)-2-{[(2E)-3-(1H-imidazol-4-yl)prop-2-enoyl]amino}propanoic Acid] |  | more salty | strong boost of saltiness and umami |
| O=C(NCCc1cnc[nH]1)c1ccc2ncsc2c1 [Example 57, N-[2-(1H-imidazol-5-yl)ethyl]-1,3-benzothiazole-6-carboxamide] |  | more salty | strong boost of saltiness and umami |
